Values from PubChem BioAssay AID504791 (Drosophila RNAi Screening Center, 2011).
Assay: 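Genes whose knock-down strengthens or weakens small-RNA reporter silencing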 (primary screen). System: Drosophila S2-derived reporter cells. Reagent: long dsRNA against Drosophila genes, about 150-250 ng dsRNA per well (siRNA assay); about 80-120 ng (miRNA assay). Time to read-out: about 5 days (siRNA assay); about 4 days (miRNA assay). Challenge: copper sulfate induction of reporters: 25 µM (siRNA assay); 200 mM stated (miRNA assay), 1-2 days before reading. Measurement: 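Per-well ratio of Renilla over firefly light, expressed relative to that plate's average ratio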. Rule for the call: 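a well was a first-pass pick when its plate-scaled ratio rose above 1.5 (siRNA assay) or 1.6 (miRNA assay), or dropped below 0.6; a gene counted only if two separate dsRNAs agreed on retest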.
In all, the deposit lists about 23,000 reagents; this is a random part of those with a known target gene and a result. Of all reagents, 199 (0.86%) got an active call. 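Plate-scaled ratios behind the calls are not deposited; printed light signals are raw; many rows marked increased or decreased are still called inactive.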 A number with no mark means an inactive call. Reagents against one gene are numbered here. Names joined by + are all predicted targets of the reagent. Not stated in the record: the direction of the score.

Target gene	reagent no.	stable siRNA reporter change	miRNA reporter change	stable assay Renilla, run 1 (luminescence)	stable assay firefly, run 1 (luminescence)
r-cup (ryder cup)	1			6003	2.89e5
CG4367	1			8143	4.10e5
CG13310	1			8006	5.25e5
lig (lingerer)	1	reporter ratio raised past the hit cutoff		14354	3.30e5
lig (lingerer)	2			4136	2.58e5
Sec61gamma (Sec61 gamma subunit)	1			5611	4.15e5
ND-B22 (NADH dehydrogenase (ubiquinone) B22 subunit)	1			7027	6.14e5
Fur1 (Furin 1)	1			5487	4.32e5
Fur1 (Furin 1)	2	reporter ratio lowered past the hit cutoff		7495	6.77e5
bdg (bedraggled)	1			8205	2.64e5
CG14075	1			6763	4.33e5
Eogt (EGF-domain O-GlcNAc transferase)	1			10496	5.69e5
CG13114	1			6508	4.01e5
CG6565	1			77384	1.80e6
CG33490	1			7909	5.04e5
Grl62c (Gustatory receptor-like 62c)	1			4911	3.34e5
CG10265	1			8439	5.69e5
CG10265	2			9602	5.65e5
nan (nanchung)	1			7519	3.90e5
Tg (Transglutaminase)	1			7810	5.53e5
CG5274	1			12707	3.32e5
Gr22c (Gustatory receptor 22c)	1			8739	4.38e5
CG10694	1			7874	3.81e5
CG13326	1			8768	4.14e5
armi (armitage)	1			5299	3.78e5
Npc2b (Niemann-Pick type C-2b)	1			7034	2.89e5
Obp56b (Odorant-binding protein 56b)	1			4975	2.42e5
CG15820	1			11133	4.15e5
CG15820	2		reporter ratio lowered past the hit cutoff		
Gr39a (Gustatory receptor 39a)	1			7343	5.56e5
Gr39a (Gustatory receptor 39a)	2			8191	5.79e5
PIG-B (Phosphatidylinositol glycan anchor biosynthesis class B)	1			4359	4.18e5
PIG-B (Phosphatidylinositol glycan anchor biosynthesis class B)	2			3528	3.03e5
CG14354	1			7247	3.06e5
uex (unextended)	1			5190	3.19e5
uex (unextended)	2			6166	4.49e5

Part of the list above, showing only “stable assay Renilla, run 1 (luminescence)”:
r-cup (ryder cup): 6003
CG4367: 8143
CG13310: 8006

Further records follow.
Target gene	reagent no.	stable siRNA reporter change	miRNA reporter change	stable assay Renilla, run 1 (luminescence)	stable assay firefly, run 1 (luminescence)
CG16762	1			6888	4.99e5
Ir54a + sub	1			6419	3.44e5
esn (espinas)	1			5343	4.23e5
esn (espinas)	2			7079	3.64e5
CG13216	1			7686	5.39e5
Ravus	1			6958	3.33e5
CG18268 + CG3014	1			7096	4.14e5
SMC1 (Structural maintenance of chromosomes 1)	1			6031	2.97e5
Ho (Heme oxygenase)	1			8342	4.90e5
CG4806	1			6763	4.55e5
CG5493 + CG5327	1			7058	3.47e5
Naa20A (N(alpha)-acetyltransferase 20 A)	1			8362	5.95e5
CG16713	1			6947	4.47e5
CG5567	1			8552	3.03e5
CG1360	1			6067	2.90e5
CG10638	1			8859	5.87e5
lncRNA:Hsromega (Heat shock RNA omega)	1			4307	5.02e5
CG8149	1			5783	3.63e5
sens (senseless)	1	reporter ratio raised past the hit cutoff		4687	2.10e5
sens (senseless)	2			6714	4.34e5
CG7120	1			6007	4.44e5
